# Test results from article PMC12325586.
# Results are given in words; binding and its absence hold for the method and conditions named. In cells and extracts the contact can be indirect. Some binding calls cover weakened binding; strength is not graded here.
# B1: RBL2, endogenous, Q08999 1-1139 (protein)
# chain: MPSGGDQSPPPPPPPPAAAASDEEEEDDGEAEDAAPPAESPTPQIQQRFDELCSRLNMDEAARAEAWDSYRSMSESYTLEGNDLHWLACALYVACRKSVPTVSKGTVEGNYVSLTRILKCSEQSLIEFFNKMKKWEDMANLPPHFRERTERLERNFTVSAVIFKKYEPIFQDIFKYPQEEQPRQQRGRKQRRQPCTVSEIFHFCWVLFIYAKGNFPMISDDLVNSYHLLLCALDLVYGNALQCSNRKELVNPNFKGLSEDFHAKDSKPSSDPPCIIEKLCSLHDGLVLEAKGIKEHFWKPYIRKLYEKKLLKGKEENLTGFLEPGNFGESFKAINKAYEEYVLSVGNLDERIFLGEDAEEEIGTLSRCLNAGSGTETAERVQMKNILQQHFDKSKALRISTPLTGVRYIKENSPCVTPVSTATHSLSRLHTMLTGLRNAPSEKLEQILRTCSRDPTQAIANRLKEMFEIYSQHFQPDEDFSNCAKEIASKHFRFAEMLYYKVLESVIEQEQKRLGDMDLSGILEQDAFHRSLLACCLEVVTFSYKPPGNFPFITEIFDVPLYHFYKVIEVFIRAEDGLCREVVKHLNQIEEQILDHLAWKPESPLWEKIRDNENRVPTCEEVMPPQNLERADEICIAGSPLTPRRVTEVRADTGGLGRSITSPTTLYDRYSSPPASTTRRRLFVENDSPSDGGTPGRMPPQPLVNAVPVQNVSGETVSVTPVPGQTLVTMATATVTANNGQTVTIPVQGIANENGGITFFPVQVNVGGQAQAVTGSIQPLSAQALAGSLSSQQVTGTTLQVPGQVAIQQISPGGQQQKQGQSVTSSSNRPRKTSSLSLFFRKVYHLAAVRLRDLCAKLDISDELRKKIWTCFEFSIIQCPELMMDRHLDQLLMCAIYVMAKVTKEDKSFQNIMRCYRTQPQARSQVYRSVLIKGKRKRRNSGSSDSRSHQNSPTELNKDRTSRDSSPVMRSSSTLPVPQPSSAPPTPTRLTGANSDMEEEERGDLIQFYNNIYIKQIKTFAMKYSQANMDAPPLSPYPFVRTGSPRRIQLSQNHPVYISPHKNETMLSPREKIFYYFSNSPSKRLREINSMIRTGETPTKKRGILLEDGSESPAKRICPENHSALLRRLQDVANDRGSH
# Target: E2F4, endogenous (human (endogenous in PANC1, MIA PaCa-2, SW1990, PATU8988T)), Q16254
# Assay: co-IP; endogenous proteins, whole-cell lysates of PANC1-Tet-shOFD1 and MIA PaCa-2-Tet-shOFD1 cells, with or without OFD1 knockdown or palbociclib (0.5 μM for 48 h); protein G magnetic beads with antibody overnight, TAP lysis buffer washes
# Settings: remark: other sources report otherwise
binder,measurement,value
B1,binding,binds
